In the supplement of paper PMC10382679:
Single values of this set are uncertain.

B1: Rpb7; numbered along this chain (parent)
chain: MFFIKDLSLNITLHPSFFGPRMKQYLKTKLLEEVEGSCTGKFGYILCVLDYDNIDIQRGRILPTDGSAEFNVKYRAVVFKPFKGEVVDGTVVSCSQHGFEVQVGPMKVFVTKHLMPQDLTFNAGSNPPSYQSSEDVITIKSRIRVKIEGCISQVSSIHAIGSIKEDYLGAI

Assays:
[1] = variants of: B1; assay: log2 fold change of mutant abundance, UV-irradiated vs unirradiated; higher = more UV resistant (enriched after UV); conditions: with Saccharomyces cerevisiae rad7Δ rad26Δ; UV dose (J/m2): 10; genetic background: rad7Δ rad26Δ rpb7Δ + plasmid RPB7 library; outgrowth: 10 cell divisions
[2] = variants of: B1; assay: NOISeq theta enrichment statistic, UV-irradiated vs unirradiated (dimensionless); higher = more UV resistant (enriched after UV); conditions: with Saccharomyces cerevisiae rad7Δ rad26Δ; UV dose (J/m2): 10; genetic background: rad7Δ rad26Δ rpb7Δ + plasmid RPB7 library; outgrowth: 10 cell divisions

Variant | log2 fold change of mutant abundance [1] | NOISeq theta enrichment statistic [2]
MFFIKDLSLNITLHPSFFGPRMKQYLKTKLLEEVEGSCTGKFGYILCVRDYDNIDIQRGRILPTDGSAEFNVKYRAVVFKPFKGEVVDGTVVSCSQHGFEVQVGPMKVFVTKHLMPQDLTFNAGSNPPSYQSSEDVITIKSRIRVKIEGCISQVSSIHAIGSIKEDYLGAI [L49R] | -0.403 | -0.445
MFFIKDLSLNITLHPSFFGPRMKQYLKTKLLEEVEGSCTGKFGYILCVSDYDNIDIQRGRILPTDGSAEFNVKYRAVVFKPFKGEVVDGTVVSCSQHGFEVQVGPMKVFVTKHLMPQDLTFNAGSNPPSYQSSEDVITIKSRIRVKIEGCISQVSSIHAIGSIKEDYLGAI [L49S] | -0.0751 | -0.0441
MFFIKDLSLNITLHPSFFGPRMKQYLKTKLLEEVEGSCTGKFGYILCVTDYDNIDIQRGRILPTDGSAEFNVKYRAVVFKPFKGEVVDGTVVSCSQHGFEVQVGPMKVFVTKHLMPQDLTFNAGSNPPSYQSSEDVITIKSRIRVKIEGCISQVSSIHAIGSIKEDYLGAI [L49T] | 0.451 | 0.333
MFFIKDLSLNITLHPSFFGPRMKQYLKTKLLEEVEGSCTGKFGYILCVVDYDNIDIQRGRILPTDGSAEFNVKYRAVVFKPFKGEVVDGTVVSCSQHGFEVQVGPMKVFVTKHLMPQDLTFNAGSNPPSYQSSEDVITIKSRIRVKIEGCISQVSSIHAIGSIKEDYLGAI [L49V] | 0.0626 | 0.0782
MFFIKDLSLNITLHPSFFGPRMKQYLKTKLLEEVEGSCTGKFGYILCVLAYDNIDIQRGRILPTDGSAEFNVKYRAVVFKPFKGEVVDGTVVSCSQHGFEVQVGPMKVFVTKHLMPQDLTFNAGSNPPSYQSSEDVITIKSRIRVKIEGCISQVSSIHAIGSIKEDYLGAI [D50A] | 0.2 | 0.363
MFFIKDLSLNITLHPSFFGPRMKQYLKTKLLEEVEGSCTGKFGYILCVLEYDNIDIQRGRILPTDGSAEFNVKYRAVVFKPFKGEVVDGTVVSCSQHGFEVQVGPMKVFVTKHLMPQDLTFNAGSNPPSYQSSEDVITIKSRIRVKIEGCISQVSSIHAIGSIKEDYLGAI [D50E] | 0.0652 | 0.163
MFFIKDLSLNITLHPSFFGPRMKQYLKTKLLEEVEGSCTGKFGYILCVLFYDNIDIQRGRILPTDGSAEFNVKYRAVVFKPFKGEVVDGTVVSCSQHGFEVQVGPMKVFVTKHLMPQDLTFNAGSNPPSYQSSEDVITIKSRIRVKIEGCISQVSSIHAIGSIKEDYLGAI [D50F] | 0.439 | 0.256
MFFIKDLSLNITLHPSFFGPRMKQYLKTKLLEEVEGSCTGKFGYILCVLGYDNIDIQRGRILPTDGSAEFNVKYRAVVFKPFKGEVVDGTVVSCSQHGFEVQVGPMKVFVTKHLMPQDLTFNAGSNPPSYQSSEDVITIKSRIRVKIEGCISQVSSIHAIGSIKEDYLGAI [D50G] | 0.13 | 0.284
MFFIKDLSLNITLHPSFFGPRMKQYLKTKLLEEVEGSCTGKFGYILCVLHYDNIDIQRGRILPTDGSAEFNVKYRAVVFKPFKGEVVDGTVVSCSQHGFEVQVGPMKVFVTKHLMPQDLTFNAGSNPPSYQSSEDVITIKSRIRVKIEGCISQVSSIHAIGSIKEDYLGAI [D50H] | 0.403 | 0.472
MFFIKDLSLNITLHPSFFGPRMKQYLKTKLLEEVEGSCTGKFGYILCVLNYDNIDIQRGRILPTDGSAEFNVKYRAVVFKPFKGEVVDGTVVSCSQHGFEVQVGPMKVFVTKHLMPQDLTFNAGSNPPSYQSSEDVITIKSRIRVKIEGCISQVSSIHAIGSIKEDYLGAI [D50N] | 0.15 | 0.339
MFFIKDLSLNITLHPSFFGPRMKQYLKTKLLEEVEGSCTGKFGYILCVLRYDNIDIQRGRILPTDGSAEFNVKYRAVVFKPFKGEVVDGTVVSCSQHGFEVQVGPMKVFVTKHLMPQDLTFNAGSNPPSYQSSEDVITIKSRIRVKIEGCISQVSSIHAIGSIKEDYLGAI [D50R] | -0.405 | -0.169
MFFIKDLSLNITLHPSFFGPRMKQYLKTKLLEEVEGSCTGKFGYILCVLSYDNIDIQRGRILPTDGSAEFNVKYRAVVFKPFKGEVVDGTVVSCSQHGFEVQVGPMKVFVTKHLMPQDLTFNAGSNPPSYQSSEDVITIKSRIRVKIEGCISQVSSIHAIGSIKEDYLGAI [D50S] | 0.107 | 0.0898
MFFIKDLSLNITLHPSFFGPRMKQYLKTKLLEEVEGSCTGKFGYILCVLTYDNIDIQRGRILPTDGSAEFNVKYRAVVFKPFKGEVVDGTVVSCSQHGFEVQVGPMKVFVTKHLMPQDLTFNAGSNPPSYQSSEDVITIKSRIRVKIEGCISQVSSIHAIGSIKEDYLGAI [D50T] | -0.0818 | -0.106
MFFIKDLSLNITLHPSFFGPRMKQYLKTKLLEEVEGSCTGKFGYILCVLVYDNIDIQRGRILPTDGSAEFNVKYRAVVFKPFKGEVVDGTVVSCSQHGFEVQVGPMKVFVTKHLMPQDLTFNAGSNPPSYQSSEDVITIKSRIRVKIEGCISQVSSIHAIGSIKEDYLGAI [D50V] | 0.0505 | 0.117
MFFIKDLSLNITLHPSFFGPRMKQYLKTKLLEEVEGSCTGKFGYILCVLYYDNIDIQRGRILPTDGSAEFNVKYRAVVFKPFKGEVVDGTVVSCSQHGFEVQVGPMKVFVTKHLMPQDLTFNAGSNPPSYQSSEDVITIKSRIRVKIEGCISQVSSIHAIGSIKEDYLGAI [D50Y] | 0.121 | 0.298
MFFIKDLSLNITLHPSFFGPRMKQYLKTKLLEEVEGSCTGKFGYILCVLDCDNIDIQRGRILPTDGSAEFNVKYRAVVFKPFKGEVVDGTVVSCSQHGFEVQVGPMKVFVTKHLMPQDLTFNAGSNPPSYQSSEDVITIKSRIRVKIEGCISQVSSIHAIGSIKEDYLGAI [Y51C] | 0.106 | 0.38
MFFIKDLSLNITLHPSFFGPRMKQYLKTKLLEEVEGSCTGKFGYILCVLDDDNIDIQRGRILPTDGSAEFNVKYRAVVFKPFKGEVVDGTVVSCSQHGFEVQVGPMKVFVTKHLMPQDLTFNAGSNPPSYQSSEDVITIKSRIRVKIEGCISQVSSIHAIGSIKEDYLGAI [Y51D] | -0.0475 | -0.0729

Quoted at random: 2 records from the list
Variant | log2 fold change of mutant abundance [1] | NOISeq theta enrichment statistic [2]
MFFIKDLSLNITLHPSFFGPRMKQYLKTKLLEEVEGSCTGKFGYILCVLNYDNIDIQRGRILPTDGSAEFNVKYRAVVFKPFKGEVVDGTVVSCSQHGFEVQVGPMKVFVTKHLMPQDLTFNAGSNPPSYQSSEDVITIKSRIRVKIEGCISQVSSIHAIGSIKEDYLGAI [D50N] | 0.15 | 0.339
MFFIKDLSLNITLHPSFFGPRMKQYLKTKLLEEVEGSCTGKFGYILCVLDCDNIDIQRGRILPTDGSAEFNVKYRAVVFKPFKGEVVDGTVVSCSQHGFEVQVGPMKVFVTKHLMPQDLTFNAGSNPPSYQSSEDVITIKSRIRVKIEGCISQVSSIHAIGSIKEDYLGAI [Y51C] | 0.106 | 0.38
